# Among all 360,000 compounds or so, about 780 (0.22%) were called active. The inconclusive results got no clear call from the source; some entries with a clear call stand among them for comparison. Rule as the data show it: active = inhibition above about 35% (passing the limit was not always enough); inconclusive = no clear call, values can overlap the other calls.
# System: Botulinum neurotoxin type F light chain protease (Clostridium botulinum)
# Assay: BoNT/F light chain protease inhibitors, primary screen, biochemical, flow cytometry, MLPCN library (AID 588497); also: plate controls were buffer without enzyme for full effect and enzyme alone for no effect
# Conditions: Multiplex microsphere protease cleavage assay, at 10 µM, hits give high values
row,Structure (SMILES),inhibition
1,Cc1cc2c(=O)cc(-c3ccccc3)oc2c(C(=O)O)c1C,inactive: 4.4%
2,COc1ccc(CC(=O)Nc2ccc(S(=O)(=O)N(C)C)cc2)cc1OC,inactive: -10.9%
3,CCOC(=O)c1c(NC(=O)Cn2nc(C(F)F)cc2C(F)F)sc(C)c1C,inconclusive: -8.5%
4,C#Cc1ccc([C@@H]2C=C(C(=O)OCC=C)O[C@H](OCc3ccc(CO)cc3)C2)cc1,inactive: 5.8%
5,Cc1ccccc1C(=O)N1CCC(C(=O)Nc2ccccn2)CC1,inconclusive: -19.6%
6,CSCCn1c(C(C)(C)C)cc(C(=O)O)c1C,inconclusive: 84.5%
7,CCC(C)NC(=O)COCc1cc(-c2ccc3c(c2)OCO3)on1 (stereo not drawn),inconclusive: 0.3%
8,C[C@H](NC(=O)c1ncn2c1C(=O)NC[C@H]2C)C(=O)OC(C)(C)C,inactive: -1.5%
9,Cc1nnc(N2CCc3ccccc3C2)[nH]c1=O,inconclusive: -34.4%
10,Cc1cccc(NC(=O)C2CC(=O)N(Cc3ccccc3)C2)n1 (stereo not drawn),inconclusive: -1.4%
11,N#C/C(=N\Nc1ccc([N+](=O)[O-])cc1)C(=N)N1CCOCC1,inconclusive: 12.7%
12,CCOC(=O)C1(Cc2cccc(Cl)c2)CCCN(C(=O)C(C)(C)C)C1 (stereo not drawn),inconclusive: -27.7%
13,N#Cc1nc(-c2cccc3ccccc23)oc1NCCN1CCCCC1,inactive: -8.2%
14,COc1ccc(S(=O)(=O)N2CCN(C(=O)CN3C(=O)NC(C)(c4ccc5ccccc5c4)C3=O)CC2)cc1 (stereo not drawn),inconclusive: -0.7%
15,CCOC(=O)C(O)(c1ccc(N(CC)S(=O)(=O)c2ccc(C)cc2)cc1)C(F)(F)F (stereo not drawn),active: 70.2%
16,Cc1cccc(C(=O)NC(=S)NC(C)c2ccccc2)c1 (stereo not drawn),inconclusive: -2.9%
17,COc1cccc(C(=O)Nc2nc3ccccc3s2)c1,inconclusive: 0.2%
18,COC(=O)CSc1nnc(COc2ccc3ccccc3c2)o1,inconclusive: 4.1%
19,COC(=O)Cc1csc(Nc2ccc(F)c(Cl)c2)n1,inactive: -0.9%
20,CCn1c(C(=O)O)c(CC(=O)Nc2cccc(C(F)(F)F)c2)c2ccccc21,inconclusive: 15.9%

row,Structure (SMILES),inhibition
1,c1ccc2c(c1)ccn1c(Cc3ccsc3)c(C3CCCCC3)nc21,inactive: -0.2%
2,Cc1cc(C)c(NC(=O)C2CCCO2)c(C)c1NC(=O)C1CCCO1 (stereo not drawn),active: 38.4%
3,CN(C)N=Nc1ccc(-c2cn(Cc3ccccc3)cn2)cc1,inconclusive: -45.9%
4,Cc1ccc2c(c1)CC1(CN2C)C(=O)NC(=O)N(c2ccccc2C)C1=O (stereo not drawn),inactive: -14.4%
5,COC(=O)C1=C(C)NC(C)=C(C(=O)OC)C1C(=O)OCc1nnc(-c2ccccc2)o1,inconclusive: -1.3%
6,O=C(/C=C/c1ccccc1)Nc1ccc(NC(=O)c2cccs2)cc1,inconclusive: 61.9%
7,CCCS(=O)(=O)c1c(S(=O)(=O)CCC)c2cnccn2c1C(=O)c1ccc(OC)cc1,inconclusive: 15.9%
8,COc1ccc(S(=O)(=O)N2CCCCCC2)cc1C(=O)N(C)CCOc1ccccc1,inconclusive: 8.2%
9,COc1ccccc1C(=O)N/C(=C\c1cn(S(=O)(=O)N(C)C)c2ccccc12)C(=O)N1CCN(C)CC1,inactive: 1.7%
10,Cc1nn2c(-c3ccc(F)cc3)ccnc2c1Cl,inconclusive: -9.1%
11,CC(C)CCn1c(=O)c2ccccc2n2c(CN3C(=O)NC4(CCC(C)CC4)C3=O)nnc12 (stereo not drawn),inconclusive: 38.7%
12,CCC(=O)NCCn1c(C)cc2ccccc21,inactive: 19.8%
13,CCC(Oc1ccccc1)C(=O)NCCOC (stereo not drawn),inactive: -6.6%
14,Cc1ccc(C(=O)Nc2ccc3ccccc3c2)cc1,inconclusive: 36.1%
15,CCN1C(=O)CCC(C(=O)O)C1c1ccc(OC)cc1 (stereo not drawn),inconclusive: 45.6%
16,O=C(COc1ncnc2c(Cl)cc(Cl)cc12)N1CCN(S(=O)(=O)c2ccccc2)CC1,inconclusive: 0.5%
17,O=C1CSC(c2ccncc2)N1Cc1ccc(F)cc1 (stereo not drawn),inconclusive: -114%
18,Cc1ccccc1-c1cc2nc(C)c(Cl)c(=O)n2[nH]1,inconclusive: 9.7%
19,CC(C)(C)NC(=O)C(c1ccc(Cl)cc1)N(Cc1ccco1)C(=O)CCl (stereo not drawn),inconclusive: -18.9%
20,O=C(O)c1ccccc1C(=O)Nc1ccccn1,inactive: 1.3%

# Four compounds drawn at random from those above, as already listed:
row,Structure (SMILES),inhibition
2,Cc1cc(C)c(NC(=O)C2CCCO2)c(C)c1NC(=O)C1CCCO1 (stereo not drawn),active: 38.4%
15,CCN1C(=O)CCC(C(=O)O)C1c1ccc(OC)cc1 (stereo not drawn),inconclusive: 45.6%
14,Cc1ccc(C(=O)Nc2ccc3ccccc3c2)cc1,inconclusive: 36.1%
8,C[C@H](NC(=O)c1ncn2c1C(=O)NC[C@H]2C)C(=O)OC(C)(C)C,inactive: -1.5%

# (listing goes on)

row,Structure (SMILES),inhibition
1,CCc1ccc(CN2CCN(c3ncccn3)CC2)cc1,active: 44.4%
2,COc1ccc(C2c3ccc4ccccc4c3Oc3ncn(CCN4CCOCC4)c(=N)c32)cc1OC (stereo not drawn),inconclusive: -8.6%
3,Cc1ccc(-n2c(O)c(C=NCC3CCCO3)c(=O)[nH]c2=O)c(C)c1 (stereo not drawn),inconclusive: 38.2%
4,CCCNC(=O)c1ccccc1C(=O)NC1(C(=O)NCCC)CCCC1,inconclusive: -2.7%
5,COc1ccc(C(CCNCc2ccc(N(C)C)cc2)C(C)C)cc1 (stereo not drawn),inconclusive: 44.3%
6,COc1cc(C(F)(F)F)c(C(=O)NCc2cccc(Cl)c2)cn1,inconclusive: 25.8%
7,O=C(COC(=O)CCC(=O)c1cccs1)Nc1cccc(S(=O)(=O)N2CCOCC2)c1,inconclusive: -43.6%
8,COc1cc(/C=N/NC(=O)c2nc(-c3ccccc3)n(-c3ccccc3)n2)ccc1O,inactive: 0.7%
9,COc1ccc(Nc2ncnc3ccc(Br)cc23)cc1OC,inconclusive: -38.3%
10,COc1ccc(OC)c(/C=N/NC(=O)c2cccc3ccccc23)c1,inconclusive: 31.3%
11,Cc1cc(C(=O)N/N=C/c2sccc2C)no1,inactive: -4.1%
12,CCN(CC)CCCN(C(=O)c1ccccc1C)c1nc(-c2ccc(OC)cc2)cs1,inconclusive: 10.9%
13,COc1cccc(NC(=O)CNCc2ccccc2)c1,inconclusive: -16.7%
14,CSc1ccc(S(=O)(=O)N2c3ccccc3CC2C)cc1 (stereo not drawn),inconclusive: 53%
15,Nc1nc(N)c(C=Nc2ccc(Br)cc2)c(Nc2ccc(Br)cc2)n1,inconclusive: 5.9%
16,COc1ccc(CC(=O)NNC(=O)c2ccc(SCc3cc(F)ccc3F)c([N+](=O)[O-])c2)cc1,inactive: 1.1%
17,O=C(NC(=S)NCc1ccccc1)C1CCCCC1,inconclusive: -47.6%
18,Cn1c(=O)c2c(ncn2CC(=O)Nc2ccc(Cl)cc2Cl)n(C)c1=O,inconclusive: -6.1%
